Reference: the supplement of paper PMC12067093, “Discovery and optimisation of a covalent ligand for TRIM25 and its application to targeted protein ubiquitination” (Chemical Science, 2025)
This is one part of the list.

By UniProt entry, the sequences of proteins in these tests, tags left out. Where a name states a change or a piece, a line headed by the entry shows the natural chain unless it says otherwise.
UniProt P14618, whole entry, looked up: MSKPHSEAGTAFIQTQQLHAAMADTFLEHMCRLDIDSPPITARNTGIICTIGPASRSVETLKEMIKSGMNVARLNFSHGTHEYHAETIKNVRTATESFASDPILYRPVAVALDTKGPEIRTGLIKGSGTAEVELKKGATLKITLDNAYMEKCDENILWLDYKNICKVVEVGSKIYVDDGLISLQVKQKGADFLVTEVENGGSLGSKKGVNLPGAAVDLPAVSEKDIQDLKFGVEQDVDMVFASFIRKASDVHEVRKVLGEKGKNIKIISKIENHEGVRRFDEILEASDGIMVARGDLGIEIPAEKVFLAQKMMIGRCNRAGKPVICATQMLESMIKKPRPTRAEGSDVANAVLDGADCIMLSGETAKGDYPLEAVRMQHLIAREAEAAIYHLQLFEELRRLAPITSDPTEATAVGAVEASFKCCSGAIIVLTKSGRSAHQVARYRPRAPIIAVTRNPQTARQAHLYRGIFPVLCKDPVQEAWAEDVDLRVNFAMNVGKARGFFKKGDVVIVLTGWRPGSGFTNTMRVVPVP
UniProt Q5JRX3: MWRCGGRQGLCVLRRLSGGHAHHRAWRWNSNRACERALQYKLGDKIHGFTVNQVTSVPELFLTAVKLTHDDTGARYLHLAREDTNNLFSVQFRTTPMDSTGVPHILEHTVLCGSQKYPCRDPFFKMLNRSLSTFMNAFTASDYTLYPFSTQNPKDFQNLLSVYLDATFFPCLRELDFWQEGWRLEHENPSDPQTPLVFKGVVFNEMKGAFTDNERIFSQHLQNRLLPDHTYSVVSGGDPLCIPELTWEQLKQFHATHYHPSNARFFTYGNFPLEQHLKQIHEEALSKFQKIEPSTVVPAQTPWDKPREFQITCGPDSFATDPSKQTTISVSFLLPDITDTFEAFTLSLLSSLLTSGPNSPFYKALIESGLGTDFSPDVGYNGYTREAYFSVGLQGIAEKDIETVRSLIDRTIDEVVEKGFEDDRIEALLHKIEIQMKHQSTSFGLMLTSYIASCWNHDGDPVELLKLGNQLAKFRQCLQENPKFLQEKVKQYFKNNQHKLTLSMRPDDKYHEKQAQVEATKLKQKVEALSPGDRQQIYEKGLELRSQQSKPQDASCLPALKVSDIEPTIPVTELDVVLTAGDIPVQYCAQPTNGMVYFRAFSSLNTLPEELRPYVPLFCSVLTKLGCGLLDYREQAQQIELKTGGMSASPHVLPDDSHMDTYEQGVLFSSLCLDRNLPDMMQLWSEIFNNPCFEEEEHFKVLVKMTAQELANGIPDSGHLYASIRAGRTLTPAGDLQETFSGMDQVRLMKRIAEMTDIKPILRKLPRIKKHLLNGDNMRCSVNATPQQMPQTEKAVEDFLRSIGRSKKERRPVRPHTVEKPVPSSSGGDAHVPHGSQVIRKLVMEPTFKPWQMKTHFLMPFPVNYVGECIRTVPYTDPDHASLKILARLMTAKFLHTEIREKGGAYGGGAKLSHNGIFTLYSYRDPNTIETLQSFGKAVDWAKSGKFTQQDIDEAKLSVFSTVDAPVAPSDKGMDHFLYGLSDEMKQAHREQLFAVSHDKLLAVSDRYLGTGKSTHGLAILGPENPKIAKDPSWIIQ
UniProt Q9Y263: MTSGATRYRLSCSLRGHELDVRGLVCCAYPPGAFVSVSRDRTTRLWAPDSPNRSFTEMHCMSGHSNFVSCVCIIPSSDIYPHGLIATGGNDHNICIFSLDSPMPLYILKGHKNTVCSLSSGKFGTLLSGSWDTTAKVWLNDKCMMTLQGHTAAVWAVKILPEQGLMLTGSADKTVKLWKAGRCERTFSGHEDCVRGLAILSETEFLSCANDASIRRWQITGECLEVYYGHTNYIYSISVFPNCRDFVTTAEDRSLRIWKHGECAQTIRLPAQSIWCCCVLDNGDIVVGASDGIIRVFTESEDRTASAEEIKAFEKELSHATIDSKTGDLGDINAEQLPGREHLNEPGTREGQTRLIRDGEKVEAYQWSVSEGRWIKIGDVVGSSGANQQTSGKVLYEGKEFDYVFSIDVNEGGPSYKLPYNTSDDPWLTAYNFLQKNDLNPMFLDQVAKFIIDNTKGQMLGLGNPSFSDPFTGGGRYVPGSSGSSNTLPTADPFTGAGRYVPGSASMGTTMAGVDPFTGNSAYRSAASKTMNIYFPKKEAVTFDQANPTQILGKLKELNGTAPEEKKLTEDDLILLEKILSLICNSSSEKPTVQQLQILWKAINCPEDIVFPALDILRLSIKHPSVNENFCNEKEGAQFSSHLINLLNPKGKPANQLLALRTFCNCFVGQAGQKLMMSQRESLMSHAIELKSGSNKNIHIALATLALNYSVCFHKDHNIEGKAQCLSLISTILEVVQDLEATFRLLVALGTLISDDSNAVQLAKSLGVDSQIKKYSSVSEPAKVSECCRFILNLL
UniProt P54277: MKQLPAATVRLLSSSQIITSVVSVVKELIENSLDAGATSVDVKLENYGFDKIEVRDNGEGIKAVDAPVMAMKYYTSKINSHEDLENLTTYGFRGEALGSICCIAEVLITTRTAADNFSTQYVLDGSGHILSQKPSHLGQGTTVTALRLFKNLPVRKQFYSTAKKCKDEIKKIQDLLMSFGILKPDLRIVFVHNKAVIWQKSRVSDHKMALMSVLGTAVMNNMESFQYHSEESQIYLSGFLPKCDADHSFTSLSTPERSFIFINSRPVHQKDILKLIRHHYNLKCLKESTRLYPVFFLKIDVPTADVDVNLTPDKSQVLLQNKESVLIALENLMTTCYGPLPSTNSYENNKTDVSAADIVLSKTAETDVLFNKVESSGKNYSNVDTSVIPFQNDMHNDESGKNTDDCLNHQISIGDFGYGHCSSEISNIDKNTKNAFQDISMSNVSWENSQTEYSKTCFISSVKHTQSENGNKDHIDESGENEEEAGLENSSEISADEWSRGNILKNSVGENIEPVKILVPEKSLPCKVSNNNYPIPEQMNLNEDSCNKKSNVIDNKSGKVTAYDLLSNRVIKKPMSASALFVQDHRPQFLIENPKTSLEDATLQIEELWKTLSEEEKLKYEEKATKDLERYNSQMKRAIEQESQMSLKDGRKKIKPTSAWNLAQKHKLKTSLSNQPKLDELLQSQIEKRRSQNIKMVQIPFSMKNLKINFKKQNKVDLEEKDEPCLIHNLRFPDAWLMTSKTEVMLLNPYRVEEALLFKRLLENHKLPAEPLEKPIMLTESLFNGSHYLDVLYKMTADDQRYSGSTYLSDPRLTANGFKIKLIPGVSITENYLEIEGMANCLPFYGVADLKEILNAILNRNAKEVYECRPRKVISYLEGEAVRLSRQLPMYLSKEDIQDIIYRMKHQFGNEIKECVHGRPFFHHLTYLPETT
UniProt O75439: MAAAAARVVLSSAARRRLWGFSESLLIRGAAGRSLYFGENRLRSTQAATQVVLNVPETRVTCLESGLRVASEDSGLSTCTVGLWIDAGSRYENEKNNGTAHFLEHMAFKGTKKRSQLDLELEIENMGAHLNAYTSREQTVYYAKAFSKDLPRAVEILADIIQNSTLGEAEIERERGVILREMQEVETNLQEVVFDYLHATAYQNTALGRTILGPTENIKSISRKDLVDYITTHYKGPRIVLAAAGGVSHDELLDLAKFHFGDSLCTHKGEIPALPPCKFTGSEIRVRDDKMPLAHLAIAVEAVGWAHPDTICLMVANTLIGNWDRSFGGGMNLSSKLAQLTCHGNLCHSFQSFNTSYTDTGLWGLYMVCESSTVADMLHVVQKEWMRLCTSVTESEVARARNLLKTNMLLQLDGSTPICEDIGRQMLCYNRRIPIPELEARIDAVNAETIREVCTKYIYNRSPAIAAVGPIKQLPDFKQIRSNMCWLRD
UniProt Q99570, whole entry, looked up: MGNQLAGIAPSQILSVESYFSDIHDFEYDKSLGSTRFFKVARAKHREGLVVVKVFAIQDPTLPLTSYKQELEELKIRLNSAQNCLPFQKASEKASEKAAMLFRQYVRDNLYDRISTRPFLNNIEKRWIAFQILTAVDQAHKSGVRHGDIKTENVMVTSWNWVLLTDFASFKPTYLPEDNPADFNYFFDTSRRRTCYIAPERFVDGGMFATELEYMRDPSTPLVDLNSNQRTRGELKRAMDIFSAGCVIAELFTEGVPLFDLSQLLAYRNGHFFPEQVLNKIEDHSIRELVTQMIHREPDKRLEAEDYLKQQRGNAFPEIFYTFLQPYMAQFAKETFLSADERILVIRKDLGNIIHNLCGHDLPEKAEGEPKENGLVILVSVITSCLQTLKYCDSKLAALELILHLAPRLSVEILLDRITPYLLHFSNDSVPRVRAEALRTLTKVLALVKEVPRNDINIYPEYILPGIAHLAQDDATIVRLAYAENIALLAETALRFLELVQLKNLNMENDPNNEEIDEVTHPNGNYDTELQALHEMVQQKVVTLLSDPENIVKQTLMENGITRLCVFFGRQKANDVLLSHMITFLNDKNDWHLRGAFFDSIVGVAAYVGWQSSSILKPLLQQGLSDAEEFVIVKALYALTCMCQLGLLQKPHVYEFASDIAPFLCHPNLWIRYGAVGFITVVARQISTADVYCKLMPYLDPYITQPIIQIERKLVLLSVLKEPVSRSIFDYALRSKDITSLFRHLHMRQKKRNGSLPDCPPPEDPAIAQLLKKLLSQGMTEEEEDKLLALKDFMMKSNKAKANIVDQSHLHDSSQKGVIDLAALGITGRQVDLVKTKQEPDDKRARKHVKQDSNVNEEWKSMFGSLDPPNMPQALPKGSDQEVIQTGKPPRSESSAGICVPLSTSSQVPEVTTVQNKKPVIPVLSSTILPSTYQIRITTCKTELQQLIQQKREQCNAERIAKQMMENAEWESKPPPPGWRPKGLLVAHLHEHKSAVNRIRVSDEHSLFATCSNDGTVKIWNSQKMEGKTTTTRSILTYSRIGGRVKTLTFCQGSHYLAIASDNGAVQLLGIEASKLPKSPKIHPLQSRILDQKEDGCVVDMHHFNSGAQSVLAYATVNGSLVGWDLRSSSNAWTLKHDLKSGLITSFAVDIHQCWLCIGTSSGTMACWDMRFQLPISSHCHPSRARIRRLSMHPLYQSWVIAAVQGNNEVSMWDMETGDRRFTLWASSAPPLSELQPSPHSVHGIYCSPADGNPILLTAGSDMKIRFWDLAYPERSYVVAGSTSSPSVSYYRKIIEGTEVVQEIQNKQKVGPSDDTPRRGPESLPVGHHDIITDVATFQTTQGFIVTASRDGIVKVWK
UniProt P54278: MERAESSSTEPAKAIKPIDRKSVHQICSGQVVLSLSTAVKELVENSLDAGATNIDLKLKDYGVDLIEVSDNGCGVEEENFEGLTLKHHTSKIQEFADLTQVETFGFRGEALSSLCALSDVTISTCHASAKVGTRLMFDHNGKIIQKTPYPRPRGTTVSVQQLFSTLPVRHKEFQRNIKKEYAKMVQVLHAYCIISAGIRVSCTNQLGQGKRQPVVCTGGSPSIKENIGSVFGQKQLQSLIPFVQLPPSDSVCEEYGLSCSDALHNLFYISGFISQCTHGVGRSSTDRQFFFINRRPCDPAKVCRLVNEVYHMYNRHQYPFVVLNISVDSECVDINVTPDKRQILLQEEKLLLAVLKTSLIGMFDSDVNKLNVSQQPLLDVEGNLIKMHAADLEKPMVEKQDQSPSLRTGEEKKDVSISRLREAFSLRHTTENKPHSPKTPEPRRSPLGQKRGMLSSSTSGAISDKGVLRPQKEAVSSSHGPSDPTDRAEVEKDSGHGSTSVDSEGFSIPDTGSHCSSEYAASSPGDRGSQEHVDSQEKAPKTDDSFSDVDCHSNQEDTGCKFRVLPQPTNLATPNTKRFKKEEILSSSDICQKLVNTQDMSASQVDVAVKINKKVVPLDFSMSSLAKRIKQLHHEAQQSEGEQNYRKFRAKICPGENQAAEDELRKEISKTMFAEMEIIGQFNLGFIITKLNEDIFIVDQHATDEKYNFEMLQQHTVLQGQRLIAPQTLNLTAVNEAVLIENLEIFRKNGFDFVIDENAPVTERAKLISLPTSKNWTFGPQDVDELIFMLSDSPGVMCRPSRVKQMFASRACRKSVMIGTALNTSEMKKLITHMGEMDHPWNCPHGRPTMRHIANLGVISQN

Compound: Cc1cc(ccc1-c1ccccc1)C(=O)N1CCCN(CC1)C(=O)CCl [compound 10]
Test: probe-labelled cysteine peptide fold change vs DMSO (competition) (log2 fold change); higher = less target engagement (more negative = stronger competition)
Details: THP-1, incubation time: 4 h
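Further: competitive profiling in live THP-1 cells: cysteine peptides tagged with an iodoacetamide desthiobiotin (IA-DTB) probe, intensity after compound treatment relative to DMSO-treated cells.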

For “PKN1_Q16512_120_LDLLHQQLQELHAHVVLPDPAATHDGPQSPGAGGPTCSATNLSR (UniProt Q16512)”, the “probe-labelled cysteine peptide fold change” value (10 µM) was -0.165 and the “probe-labelled cysteine peptide fold change” value (50 µM) was -0.163.
For “PKM_P14618_474_GIFPVLCK (UniProt P14618)”, the “probe-labelled cysteine peptide fold change” value (10 µM) was -0.00938 and the “probe-labelled cysteine peptide fold change” value (50 µM) was 0.0753.
With “PML_P29590_57_CQQCQAEAK (UniProt P29590)” the “probe-labelled cysteine peptide fold change” value (10 µM) was 0.138 and the “probe-labelled cysteine peptide fold change” value (50 µM) was 0.0768.
In the case of “PITRM1_Q5JRX3_477_QCLQENPK (UniProt Q5JRX3)”, the “probe-labelled cysteine peptide fold change” value (10 µM) was -0.173 and the “probe-labelled cysteine peptide fold change” value (50 µM) was 0.0942.
For “PLAA_Q9Y263_208_GLAILSETEFLSCANDASIRR (UniProt Q9Y263)”, the “probe-labelled cysteine peptide fold change” value (10 µM) was 0.0636 and the “probe-labelled cysteine peptide fold change” value (50 µM) was -0.205.
In the case of “PLEKHO2_Q8TD55_59_CVETVELGSYEK (UniProt Q8TD55)”, the “probe-labelled cysteine peptide fold change” value (10 µM) was -0.241 and the “probe-labelled cysteine peptide fold change” value (50 µM) was -0.137.
PLAA_Q9Y263_788_VSECCR (UniProt Q9Y263) was tested, and the “probe-labelled cysteine peptide fold change” value (10 µM) was 0.164 and the “probe-labelled cysteine peptide fold change” value (50 µM) was -0.0317.
“PKN2_Q16513_704_DEVDSLMCEK (UniProt Q16513)” was tested, and the “probe-labelled cysteine peptide fold change” value (10 µM) was -0.103 and the “probe-labelled cysteine peptide fold change” value (50 µM) was -0.0158.
For PIN1_Q13526_57_CSHLLVK (UniProt Q13526), the “probe-labelled cysteine peptide fold change” value (10 µM) was -0.109 and the “probe-labelled cysteine peptide fold change” value (50 µM) was -0.172.
In the case of “PLEK_P08567_155+160_IFNHCFTGNCVIDWLVSNQSVR (UniProt P08567)”, the “probe-labelled cysteine peptide fold change” value (10 µM) was 0.0766 and the “probe-labelled cysteine peptide fold change” value (50 µM) was -0.76.
In the case of “PMS1_P54277_243_CDADHSFTSLSTPER (UniProt P54277)”, the “probe-labelled cysteine peptide fold change” value (10 µM) was 0.0112 and the “probe-labelled cysteine peptide fold change” value (50 µM) was -0.176.
In the case of “PLCG2_P16885_551_LLQEYCMETGGK (UniProt P16885)”, the “probe-labelled cysteine peptide fold change” value (10 µM) was -0.0349 and the “probe-labelled cysteine peptide fold change” value (50 µM) was -0.0546.
In the case of “PLEC_Q15149_317_CDNFTSSWR (UniProt Q15149)”, the “probe-labelled cysteine peptide fold change” value (10 µM) was -0.0309 and the “probe-labelled cysteine peptide fold change” value (50 µM) was 0.148.
For “PITRM1_Q5JRX3_869_THFLMPFPVNYVGECIR (UniProt Q5JRX3)”, the “probe-labelled cysteine peptide fold change” value (10 µM) was -0.0756 and the “probe-labelled cysteine peptide fold change” value (50 µM) was 0.159.
With “PMPCB_O75439_389_LCTSVTESEVAR (UniProt O75439)” the “probe-labelled cysteine peptide fold change” value (10 µM) was 0.229 and the “probe-labelled cysteine peptide fold change” value (50 µM) was 0.168.
In the case of “PNKD_Q8N490_329_KGTCPSTLGEER (UniProt Q8N490)”, the “probe-labelled cysteine peptide fold change” value (10 µM) was -0.157 and the “probe-labelled cysteine peptide fold change” value (50 µM) was 0.0597.
With “PLCB2_Q00722_1108_QAACLEQIR (UniProt Q00722)” the “probe-labelled cysteine peptide fold change” value (10 µM) was 0.455 and the “probe-labelled cysteine peptide fold change” value (50 µM) was 0.209.
For “PMS1_P54277_725_DEPCLIHNLR (UniProt P54277)”, the “probe-labelled cysteine peptide fold change” value (10 µM) was -0.316 and the “probe-labelled cysteine peptide fold change” value (50 µM) was -0.756.
In the case of “PIK3R4_Q99570_955_EQCNAER (UniProt Q99570)”, the “probe-labelled cysteine peptide fold change” value (10 µM) was -0.112 and the “probe-labelled cysteine peptide fold change” value (50 µM) was -0.0289.
With “PIP4P1_Q86T03_177_VICGHCK (UniProt Q86T03)” the “probe-labelled cysteine peptide fold change” value (10 µM) was 0.0769 and the “probe-labelled cysteine peptide fold change” value (50 µM) was -0.0325.
“PLBD2_Q8NHP8_492_YNDFLHDPLSLCK (UniProt Q8NHP8)” was tested, and the “probe-labelled cysteine peptide fold change” value (10 µM) was 0.0964 and the “probe-labelled cysteine peptide fold change” value (50 µM) was -0.267.
For “PLCB2_Q00722_1001_QGEEQYECVLK (UniProt Q00722)”, the “probe-labelled cysteine peptide fold change” value (10 µM) was 0.0275 and the “probe-labelled cysteine peptide fold change” value (50 µM) was -0.275.
In the case of “PIK3R4_Q99570_955_REQCNAER (UniProt Q99570)”, the “probe-labelled cysteine peptide fold change” value (10 µM) was -0.101 and the “probe-labelled cysteine peptide fold change” value (50 µM) was 0.153.
For “PIK3R4_Q99570_84_LNSAQNCLPFQK (UniProt Q99570)”, the “probe-labelled cysteine peptide fold change” value (10 µM) was -0.17 and the “probe-labelled cysteine peptide fold change” value (50 µM) was 0.0647.
“PLXNB2_O15031_351_DIFYKPFHGDIQCGGHAPGSSK (UniProt O15031)” was tested, and the “probe-labelled cysteine peptide fold change” value (10 µM) was -0.134 and the “probe-labelled cysteine peptide fold change” value (50 µM) was -0.127.
For “PNKP_Q96T60_445_AAGVPCR (UniProt Q96T60)”, the “probe-labelled cysteine peptide fold change” value (10 µM) was -0.0274 and the “probe-labelled cysteine peptide fold change” value (50 µM) was -0.232.
“PKM_P14618_326_AGKPVICATQMLESMIK (UniProt P14618)” was tested, and the “probe-labelled cysteine peptide fold change” value (10 µM) was -0.212 and the “probe-labelled cysteine peptide fold change” value (50 µM) was -0.151.
“PLEC_Q15149_1098_EYGSCSHHYQQLLQSLEQGAQEESR (UniProt Q15149)” was tested, and the “probe-labelled cysteine peptide fold change” value (10 µM) was -0.125 and the “probe-labelled cysteine peptide fold change” value (50 µM) was -0.103.
In the case of “PIK3R2_O00459_50_CPQSVGWMPGLNER (UniProt O00459)”, the “probe-labelled cysteine peptide fold change” value (10 µM) was -0.0764 and the “probe-labelled cysteine peptide fold change” value (50 µM) was -0.249.
“PIK3R4_Q99570_358_DLGNIIHNLCGHDLPEK (UniProt Q99570)” was tested, and the “probe-labelled cysteine peptide fold change” value (10 µM) was 0.0667 and the “probe-labelled cysteine peptide fold change” value (50 µM) was 0.145.
For “PMS2_P54278_591_EEILSSSDICQK (UniProt P54278)”, the “probe-labelled cysteine peptide fold change” value (10 µM) was -0.109 and the “probe-labelled cysteine peptide fold change” value (50 µM) was -0.181.
“PLOD3_O60568_494_DVFSGSDTDPDMAFCK (UniProt O60568)” was tested, and the “probe-labelled cysteine peptide fold change” value (10 µM) was -0.168 and the “probe-labelled cysteine peptide fold change” value (50 µM) was -0.00128.
In the case of “PML_P29590_389_LQDLSSCITQGK (UniProt P29590)”, the “probe-labelled cysteine peptide fold change” value (10 µM) was -0.416 and the “probe-labelled cysteine peptide fold change” value (50 µM) was -0.317.
In the case of “PLD4_Q96BZ4_379_LLVGCGLNTDPTMFPYLR (UniProt Q96BZ4)”, the “probe-labelled cysteine peptide fold change” value (10 µM) was -0.0446 and the “probe-labelled cysteine peptide fold change” value (50 µM) was -0.0242.
In the case of “PLEKHA2_Q9HB19_191_SQSYIPTSGCR (UniProt Q9HB19)”, the “probe-labelled cysteine peptide fold change” value (10 µM) was -0.199 and the “probe-labelled cysteine peptide fold change” value (50 µM) was -1.02.
With “PMPCB_O75439_419_TNMLLQLDGSTPICEDIGR (UniProt O75439)” the “probe-labelled cysteine peptide fold change” value (10 µM) was -0.102 and the “probe-labelled cysteine peptide fold change” value (50 µM) was 0.164.
“PMS2_P54278_653_ICPGENQAAEDELRK (UniProt P54278)” was tested, and the “probe-labelled cysteine peptide fold change” value (10 µM) was 0.0156 and the “probe-labelled cysteine peptide fold change” value (50 µM) was -0.157.
With “PLA2G4A_P47712_726_CSVSLSNVEAR (UniProt P47712)” the “probe-labelled cysteine peptide fold change” value (10 µM) was -0.188 and the “probe-labelled cysteine peptide fold change” value (50 µM) was -0.576.
“PJA2_O43164_48_HAYVSFKPCMTR (UniProt O43164)” was tested, and the “probe-labelled cysteine peptide fold change” value (10 µM) was -0.156 and the “probe-labelled cysteine peptide fold change” value (50 µM) was -0.00112.
In the case of “PLEC_Q15149_3667_CVEDPETGLR (UniProt Q15149)”, the “probe-labelled cysteine peptide fold change” value (10 µM) was 0.0369 and the “probe-labelled cysteine peptide fold change” value (50 µM) was 0.143.
